Reference: the supplement of paper PMC6411743
± gives the standard deviation of the averaged measurements. Only a part is listed here, and it is no random draw.

The chains behind the UniProt entries cited, without tags or fusion partners. Where a name states a change or a piece, a line headed by the entry shows the natural chain unless it says otherwise.
UniProt Q13287: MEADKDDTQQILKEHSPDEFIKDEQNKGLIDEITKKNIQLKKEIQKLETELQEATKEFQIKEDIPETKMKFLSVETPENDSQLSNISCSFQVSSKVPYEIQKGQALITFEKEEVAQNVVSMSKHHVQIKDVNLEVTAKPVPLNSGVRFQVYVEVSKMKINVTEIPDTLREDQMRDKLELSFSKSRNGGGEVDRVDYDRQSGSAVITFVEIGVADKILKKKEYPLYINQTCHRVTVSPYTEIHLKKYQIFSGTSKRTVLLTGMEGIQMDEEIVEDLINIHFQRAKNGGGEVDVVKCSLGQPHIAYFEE
UniProt Q13625: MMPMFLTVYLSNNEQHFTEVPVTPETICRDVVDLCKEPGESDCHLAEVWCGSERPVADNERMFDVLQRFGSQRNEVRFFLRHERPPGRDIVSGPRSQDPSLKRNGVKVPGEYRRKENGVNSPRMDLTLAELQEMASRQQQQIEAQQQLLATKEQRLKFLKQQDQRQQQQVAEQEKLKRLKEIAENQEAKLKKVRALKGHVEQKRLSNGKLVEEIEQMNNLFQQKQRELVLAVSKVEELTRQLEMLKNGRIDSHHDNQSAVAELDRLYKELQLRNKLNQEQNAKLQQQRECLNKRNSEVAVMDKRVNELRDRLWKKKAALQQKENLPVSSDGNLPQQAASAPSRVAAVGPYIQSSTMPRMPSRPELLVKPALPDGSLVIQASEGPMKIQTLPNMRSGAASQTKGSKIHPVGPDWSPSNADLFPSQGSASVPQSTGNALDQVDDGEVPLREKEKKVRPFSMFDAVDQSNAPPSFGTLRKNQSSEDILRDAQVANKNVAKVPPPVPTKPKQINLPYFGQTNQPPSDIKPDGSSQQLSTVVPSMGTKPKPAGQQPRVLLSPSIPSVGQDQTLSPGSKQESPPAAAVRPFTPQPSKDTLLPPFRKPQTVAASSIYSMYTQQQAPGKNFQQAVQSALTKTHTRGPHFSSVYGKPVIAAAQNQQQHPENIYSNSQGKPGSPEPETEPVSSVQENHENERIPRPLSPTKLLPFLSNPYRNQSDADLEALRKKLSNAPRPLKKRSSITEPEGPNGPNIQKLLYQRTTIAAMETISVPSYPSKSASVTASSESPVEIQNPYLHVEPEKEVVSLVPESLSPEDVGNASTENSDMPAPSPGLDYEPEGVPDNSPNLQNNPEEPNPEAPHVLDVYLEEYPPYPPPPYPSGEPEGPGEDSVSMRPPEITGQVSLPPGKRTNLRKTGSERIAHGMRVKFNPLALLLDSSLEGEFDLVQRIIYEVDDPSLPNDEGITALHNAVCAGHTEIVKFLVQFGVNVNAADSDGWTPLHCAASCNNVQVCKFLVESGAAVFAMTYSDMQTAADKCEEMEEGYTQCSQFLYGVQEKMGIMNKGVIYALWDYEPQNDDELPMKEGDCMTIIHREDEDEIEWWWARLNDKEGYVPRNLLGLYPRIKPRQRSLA
UniProt Q14997: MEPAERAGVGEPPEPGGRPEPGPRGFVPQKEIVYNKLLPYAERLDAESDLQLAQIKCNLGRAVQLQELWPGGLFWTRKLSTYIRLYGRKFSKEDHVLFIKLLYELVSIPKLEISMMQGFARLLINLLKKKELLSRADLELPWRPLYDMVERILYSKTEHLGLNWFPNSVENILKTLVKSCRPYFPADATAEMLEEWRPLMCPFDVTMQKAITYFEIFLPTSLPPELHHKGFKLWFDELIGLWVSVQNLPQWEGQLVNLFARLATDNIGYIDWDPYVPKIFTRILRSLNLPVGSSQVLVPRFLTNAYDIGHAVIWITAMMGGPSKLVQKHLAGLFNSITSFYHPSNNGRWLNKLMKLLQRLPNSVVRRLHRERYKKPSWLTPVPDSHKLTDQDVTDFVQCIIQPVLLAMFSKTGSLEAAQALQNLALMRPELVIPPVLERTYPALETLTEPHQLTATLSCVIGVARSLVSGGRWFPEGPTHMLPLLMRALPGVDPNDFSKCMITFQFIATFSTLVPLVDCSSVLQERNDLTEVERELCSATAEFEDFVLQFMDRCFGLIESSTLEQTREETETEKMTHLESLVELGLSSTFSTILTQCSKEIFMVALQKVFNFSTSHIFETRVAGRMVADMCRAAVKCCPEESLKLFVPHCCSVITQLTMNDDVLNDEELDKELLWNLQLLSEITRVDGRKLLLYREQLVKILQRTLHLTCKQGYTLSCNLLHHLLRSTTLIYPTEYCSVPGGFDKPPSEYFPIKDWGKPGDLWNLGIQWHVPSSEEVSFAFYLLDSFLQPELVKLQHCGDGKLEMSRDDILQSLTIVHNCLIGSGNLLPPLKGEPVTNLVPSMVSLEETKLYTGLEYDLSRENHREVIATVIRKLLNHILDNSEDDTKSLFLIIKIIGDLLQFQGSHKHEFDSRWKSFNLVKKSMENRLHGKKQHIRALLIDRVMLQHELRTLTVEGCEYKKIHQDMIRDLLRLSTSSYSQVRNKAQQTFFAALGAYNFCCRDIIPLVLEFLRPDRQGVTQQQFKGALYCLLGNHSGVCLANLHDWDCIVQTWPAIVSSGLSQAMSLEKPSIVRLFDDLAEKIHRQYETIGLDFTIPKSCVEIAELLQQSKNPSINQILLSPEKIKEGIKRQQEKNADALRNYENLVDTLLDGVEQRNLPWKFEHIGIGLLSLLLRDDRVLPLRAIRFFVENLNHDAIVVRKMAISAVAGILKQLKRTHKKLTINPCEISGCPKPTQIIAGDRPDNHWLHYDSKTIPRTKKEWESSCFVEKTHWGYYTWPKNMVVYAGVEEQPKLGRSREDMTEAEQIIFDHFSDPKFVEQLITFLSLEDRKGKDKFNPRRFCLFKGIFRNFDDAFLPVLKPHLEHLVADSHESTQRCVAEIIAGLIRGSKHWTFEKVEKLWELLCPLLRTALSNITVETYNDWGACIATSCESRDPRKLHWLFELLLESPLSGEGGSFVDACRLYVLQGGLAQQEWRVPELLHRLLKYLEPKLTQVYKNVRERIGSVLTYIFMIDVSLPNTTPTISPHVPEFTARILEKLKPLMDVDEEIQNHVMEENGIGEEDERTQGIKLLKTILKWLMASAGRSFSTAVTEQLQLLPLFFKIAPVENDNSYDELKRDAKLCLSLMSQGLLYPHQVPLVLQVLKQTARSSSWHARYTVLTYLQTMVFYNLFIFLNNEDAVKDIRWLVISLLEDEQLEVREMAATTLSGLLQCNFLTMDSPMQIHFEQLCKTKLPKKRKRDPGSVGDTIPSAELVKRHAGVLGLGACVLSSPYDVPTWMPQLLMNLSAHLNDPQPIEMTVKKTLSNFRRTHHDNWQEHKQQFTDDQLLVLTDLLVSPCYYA
UniProt Q13451: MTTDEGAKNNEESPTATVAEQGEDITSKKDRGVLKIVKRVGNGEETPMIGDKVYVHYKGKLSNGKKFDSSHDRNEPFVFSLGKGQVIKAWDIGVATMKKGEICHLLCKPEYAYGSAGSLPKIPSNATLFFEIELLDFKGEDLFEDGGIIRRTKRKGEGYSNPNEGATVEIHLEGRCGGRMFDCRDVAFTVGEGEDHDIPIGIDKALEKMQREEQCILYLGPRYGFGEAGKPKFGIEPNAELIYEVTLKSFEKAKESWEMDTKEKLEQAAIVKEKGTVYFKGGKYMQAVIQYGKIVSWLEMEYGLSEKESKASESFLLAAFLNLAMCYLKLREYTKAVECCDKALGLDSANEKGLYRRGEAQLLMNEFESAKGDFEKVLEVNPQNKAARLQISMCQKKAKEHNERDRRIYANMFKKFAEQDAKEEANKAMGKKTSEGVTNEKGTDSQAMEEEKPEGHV
UniProt Q13153, whole entry: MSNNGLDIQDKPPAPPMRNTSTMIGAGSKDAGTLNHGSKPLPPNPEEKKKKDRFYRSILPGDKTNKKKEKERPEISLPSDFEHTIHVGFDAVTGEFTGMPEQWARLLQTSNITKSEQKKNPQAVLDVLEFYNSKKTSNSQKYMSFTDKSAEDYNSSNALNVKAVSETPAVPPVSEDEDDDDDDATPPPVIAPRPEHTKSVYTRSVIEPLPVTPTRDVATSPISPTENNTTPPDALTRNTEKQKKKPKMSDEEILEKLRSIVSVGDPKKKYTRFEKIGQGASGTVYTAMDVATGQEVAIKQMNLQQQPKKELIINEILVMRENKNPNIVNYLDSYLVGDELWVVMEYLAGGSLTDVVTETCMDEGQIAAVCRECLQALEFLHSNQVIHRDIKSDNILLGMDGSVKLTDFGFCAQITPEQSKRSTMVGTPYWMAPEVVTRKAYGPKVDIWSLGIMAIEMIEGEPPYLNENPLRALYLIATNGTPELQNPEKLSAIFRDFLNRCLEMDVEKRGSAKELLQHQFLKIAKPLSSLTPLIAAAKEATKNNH
UniProt Q13619, whole entry: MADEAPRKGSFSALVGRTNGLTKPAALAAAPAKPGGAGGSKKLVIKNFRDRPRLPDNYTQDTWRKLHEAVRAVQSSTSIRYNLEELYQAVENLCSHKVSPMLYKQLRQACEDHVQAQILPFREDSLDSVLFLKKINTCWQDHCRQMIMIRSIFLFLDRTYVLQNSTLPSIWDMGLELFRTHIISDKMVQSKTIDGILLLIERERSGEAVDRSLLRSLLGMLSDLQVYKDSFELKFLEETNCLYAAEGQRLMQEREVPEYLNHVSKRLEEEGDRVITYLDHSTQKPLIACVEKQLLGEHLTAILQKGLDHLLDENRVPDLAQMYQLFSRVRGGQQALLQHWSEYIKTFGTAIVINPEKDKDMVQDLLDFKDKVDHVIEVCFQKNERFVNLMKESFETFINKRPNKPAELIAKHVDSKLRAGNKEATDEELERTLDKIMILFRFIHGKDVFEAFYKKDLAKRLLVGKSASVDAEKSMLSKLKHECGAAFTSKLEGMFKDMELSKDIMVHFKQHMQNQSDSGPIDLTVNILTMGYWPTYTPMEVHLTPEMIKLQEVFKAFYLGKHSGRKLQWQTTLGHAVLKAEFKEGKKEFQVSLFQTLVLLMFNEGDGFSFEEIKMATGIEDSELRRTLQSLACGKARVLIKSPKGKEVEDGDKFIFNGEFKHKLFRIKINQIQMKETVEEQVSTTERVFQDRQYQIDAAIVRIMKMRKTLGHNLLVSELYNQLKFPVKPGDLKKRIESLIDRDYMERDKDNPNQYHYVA
UniProt Q09028, whole entry: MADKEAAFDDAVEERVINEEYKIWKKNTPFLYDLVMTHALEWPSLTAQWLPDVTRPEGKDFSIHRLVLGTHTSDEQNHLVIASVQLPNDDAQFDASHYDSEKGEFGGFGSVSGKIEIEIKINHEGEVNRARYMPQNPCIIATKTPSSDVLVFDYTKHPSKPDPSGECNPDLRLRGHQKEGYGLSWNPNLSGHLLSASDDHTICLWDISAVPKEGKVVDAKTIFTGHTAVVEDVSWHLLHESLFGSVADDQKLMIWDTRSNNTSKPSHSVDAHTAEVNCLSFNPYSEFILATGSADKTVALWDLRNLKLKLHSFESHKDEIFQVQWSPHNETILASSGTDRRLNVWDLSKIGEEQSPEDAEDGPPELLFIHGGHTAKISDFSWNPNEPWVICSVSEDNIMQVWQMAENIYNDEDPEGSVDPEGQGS
UniProt Q13561, whole entry: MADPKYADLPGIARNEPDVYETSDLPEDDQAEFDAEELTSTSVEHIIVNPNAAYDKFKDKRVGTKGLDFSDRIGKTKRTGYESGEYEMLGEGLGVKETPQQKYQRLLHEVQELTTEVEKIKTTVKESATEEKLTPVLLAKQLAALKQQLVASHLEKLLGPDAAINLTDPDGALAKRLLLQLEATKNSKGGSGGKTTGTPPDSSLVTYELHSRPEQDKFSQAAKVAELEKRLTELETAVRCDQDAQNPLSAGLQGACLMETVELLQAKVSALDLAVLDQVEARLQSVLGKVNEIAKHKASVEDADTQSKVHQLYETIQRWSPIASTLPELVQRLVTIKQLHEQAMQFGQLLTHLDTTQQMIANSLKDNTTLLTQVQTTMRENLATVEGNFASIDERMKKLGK
UniProt Q13190: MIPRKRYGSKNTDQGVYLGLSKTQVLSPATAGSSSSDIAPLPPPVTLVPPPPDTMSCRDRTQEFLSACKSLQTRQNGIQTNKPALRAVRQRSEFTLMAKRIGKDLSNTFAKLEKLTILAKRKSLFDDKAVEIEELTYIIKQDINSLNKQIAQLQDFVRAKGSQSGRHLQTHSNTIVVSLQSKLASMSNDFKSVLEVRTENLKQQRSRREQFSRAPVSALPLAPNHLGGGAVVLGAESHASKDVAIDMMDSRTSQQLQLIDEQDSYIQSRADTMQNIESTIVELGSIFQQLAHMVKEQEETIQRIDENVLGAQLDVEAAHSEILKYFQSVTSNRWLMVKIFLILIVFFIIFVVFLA

Compound: Nc1ncnc2c1ncn2[C@@H]1O[C@H](COP(=O)(O)OP(=O)(O)NP(=O)(O)O)[C@@H](O)[C@H]1O [adenylyl imidodiphosphate]
Test: NP40-soluble protein abundance relative to vehicle (solubility fold change) (ratio); higher = more soluble protein in presence of AMP-PNP
Method in brief: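 Crude Jurkat lysate, prepared by Dounce homogenisation, was exposed to eight concentrations from 0.1 to 10 mM for 10 min at room temperature and then 3 min at 37 °C. Solubilisation used 0.8% NP40 with benzonase for 60 min at 4 °C, followed by ultracentrifugation and TMT labelling of the supernatant for LC-MS/MS. After vsn normalisation of intensities, each value is the fold change against the detergent-processed vehicle within each replicate, across three independent experiments.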

Target	NP40-soluble protein abundance (concentration: 1mM)	NP40-soluble protein abundance (concentration: 2mM)	NP40-soluble protein abundance (concentration: 4mM)	NP40-soluble protein abundance (concentration: 6mM)	NP40-soluble protein abundance (concentration: 8mM)	NP40-soluble protein abundance (concentration: 10mM)
NMI (UniProt Q13287)	1.01 ± 0.019	1.013 ± 0.0084	1.03 ± 0.014	1.008 ± 0.0075	1 ± 0.042	1.02 ± 0.069
UniProt Q13625 and related entries	1 ± 0.037	1.04 ± 0.038	1.02 ± 0.052	1.01 ± 0.051	0.958 ± 0.017	1.02 ± 0.046
PSME4 (UniProt Q14997)	0.9678 ± 0.0088	0.905 ± 0.072	0.968 ± 0.045	0.884 ± 0.075	0.925 ± 0.11	0.884 ± 0.11
FKBP5 (UniProt Q13451)	1.004 ± 0.0095	0.983 ± 0.043	0.974 ± 0.019	0.958 ± 0.022	0.937 ± 0.017	0.934 ± 0.018
PRPF4B (UniProt Q13523)	1.02 ± 0.02	1.01 ± 0.048	1.1 ± 0.037	1.2 ± 0.032	1.26 ± 0.042	1.34 ± 0.067
PAK1 (UniProt Q13153)	0.989 ± 0.035	1.05 ± 0.046	0.989 ± 0.036	0.981 ± 0.013	0.926 ± 0.032	0.975 ± 0.041
UniProt Q15056-2|Q15056	0.999 ± 0.037	1.03 ± 0.035	0.945 ± 0.14	0.94 ± 0.081	0.929 ± 0.087	0.884 ± 0.21
UniProt Q14156 and related entries	0.9764 ± 0.0041	0.961 ± 0.041	0.9737 ± 0.0064	0.952 ± 0.023	0.973 ± 0.015	0.953 ± 0.018
CUL4A (UniProt Q13619)	0.963 ± 0.022	0.938 ± 0.052	0.995 ± 0.037	1.02 ± 0.047	1.04 ± 0.027	1.03 ± 0.047
UniProt Q13501 and related entries	1.04 ± 0.047	1.05 ± 0.037	1.01 ± 0.042	1.02 ± 0.045	0.966 ± 0.048	1.04 ± 0.055
UniProt Q09028 and related entries	1.02 ± 0.031	1.03 ± 0.05	1.03 ± 0.055	0.9856 ± 0.0053	1.01 ± 0.054	0.978 ± 0.011
UniProt Q14680 and related entries	1.01 ± 0.017	1.02 ± 0.024	0.994 ± 0.022	1.01 ± 0.0026	1.01 ± 0.022	1.02 ± 0.044
UniProt Q13561 and related entries	0.995 ± 0.054	1.04 ± 0.028	0.964 ± 0.041	0.947 ± 0.072	0.92 ± 0.06	0.925 ± 0.06
UniProt Q13438 and related entries	1.02 ± 0.014	1.01 ± 0.052	1 ± 0.024	0.994 ± 0.015	0.98 ± 0.041	0.987 ± 0.012
UniProt Q13190 and related entries	0.976 ± 0.022	0.98 ± 0.044	0.998 ± 0.017	1 ± 0.074	1.02 ± 0.057	1.05 ± 0.057

Taken from above.
Entry for UniProt Q13625 and related entries under NP40-soluble protein abundance (concentration: 10mM): 1.02 ± 0.046
Entry for UniProt Q15056-2|Q15056 under NP40-soluble protein abundance (concentration: 1mM): 0.999 ± 0.037
